This note sets out measurements from publication PMC6381112.

By UniProt entry, the sequences of proteins in these tests, tags left out. Where a name states a change or a piece, a line headed by the entry shows the natural chain unless it says otherwise.
UniProt Q96AC1: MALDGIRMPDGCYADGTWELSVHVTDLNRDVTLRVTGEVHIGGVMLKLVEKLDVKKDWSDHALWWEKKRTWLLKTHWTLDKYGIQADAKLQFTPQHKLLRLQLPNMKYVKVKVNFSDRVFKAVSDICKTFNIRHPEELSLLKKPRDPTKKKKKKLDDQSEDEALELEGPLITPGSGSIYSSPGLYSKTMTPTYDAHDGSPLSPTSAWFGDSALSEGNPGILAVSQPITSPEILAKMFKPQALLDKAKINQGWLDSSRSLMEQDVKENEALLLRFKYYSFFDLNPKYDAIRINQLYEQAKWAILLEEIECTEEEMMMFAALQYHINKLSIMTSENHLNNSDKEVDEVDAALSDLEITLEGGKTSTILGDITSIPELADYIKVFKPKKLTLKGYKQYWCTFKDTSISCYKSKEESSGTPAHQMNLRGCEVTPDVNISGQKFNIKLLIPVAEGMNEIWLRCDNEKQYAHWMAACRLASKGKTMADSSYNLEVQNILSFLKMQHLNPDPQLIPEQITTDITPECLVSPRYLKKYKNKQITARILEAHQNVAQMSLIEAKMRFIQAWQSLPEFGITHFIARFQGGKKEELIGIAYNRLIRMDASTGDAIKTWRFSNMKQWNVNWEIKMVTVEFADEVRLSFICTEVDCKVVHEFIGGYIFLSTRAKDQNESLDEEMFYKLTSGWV

These are yes or no findings as the source states them, for the method shown. A result given as binding can be weak or reduced; the word gives no strength. Tags and fused reporters may be left off the sequences shown.

Assay [1] has as its target GST-kindlin-2 with deletion of F1 (UniProt Q96AC1). Briefly: pull-down; GST or GST-fusion proteins bound to glutathione-Sepharose beads incubated with purified His-tagged PYCR1 (0-40 μg ml^-1) for 2 h at 4 °C; washed with 20 mM Tris pH 7.5, 150 mM NaCl, 0.1% Triton; western blotting with anti-His and anti-GST; both purified.
Assay [2] deals with GST-kindlin-2 with deletion of F3 (UniProt Q96AC1). The assay is described as above.

B1: His-tagged PYCR1 (enzyme, UniProt P32322 1-319)
chain: MSVGFIGAGQLAFALAKGFTAAGVLAAHKIMASSPDMDLATVSALRKMGVKLTPHNKETVQHSDVLFLAVKPHIIPFILDEIGADIEDRHIVVSCAAGVTISSIEKKLSAFRPAPRVIRCMTNTPVVVREGATVYATGTHAQVEDGRLMEQLLSSVGFCTEVEEDLIDAVTGLSGSGPAYAFTALDALADGGVKMGLPRRLAVRLGAQALLGAAKMLLHSEQHPGQLKDNVSSPGGATIHALHVLESGGFRSLLINAVEASCIRTRELQSMADQEQVSPAAIKKTILDKVKLDSPAGTALSPSGHTKLLPRSLAPAGKD
Regarding B1, the binding result in assay [1] and in assay [2] was “binds” throughout.
